# Data: publication doi:10.1101/2023.07.22.550030
# Sequences of proteins named here, by UniProt entry; tags and fusion partners are left off. A change or cut given only in a name is not applied to a line headed by its entry. A line that says so, or that is headed by a name, gives the form on record, which may keep a tag or linker.
# UniProt Q9BUJ2: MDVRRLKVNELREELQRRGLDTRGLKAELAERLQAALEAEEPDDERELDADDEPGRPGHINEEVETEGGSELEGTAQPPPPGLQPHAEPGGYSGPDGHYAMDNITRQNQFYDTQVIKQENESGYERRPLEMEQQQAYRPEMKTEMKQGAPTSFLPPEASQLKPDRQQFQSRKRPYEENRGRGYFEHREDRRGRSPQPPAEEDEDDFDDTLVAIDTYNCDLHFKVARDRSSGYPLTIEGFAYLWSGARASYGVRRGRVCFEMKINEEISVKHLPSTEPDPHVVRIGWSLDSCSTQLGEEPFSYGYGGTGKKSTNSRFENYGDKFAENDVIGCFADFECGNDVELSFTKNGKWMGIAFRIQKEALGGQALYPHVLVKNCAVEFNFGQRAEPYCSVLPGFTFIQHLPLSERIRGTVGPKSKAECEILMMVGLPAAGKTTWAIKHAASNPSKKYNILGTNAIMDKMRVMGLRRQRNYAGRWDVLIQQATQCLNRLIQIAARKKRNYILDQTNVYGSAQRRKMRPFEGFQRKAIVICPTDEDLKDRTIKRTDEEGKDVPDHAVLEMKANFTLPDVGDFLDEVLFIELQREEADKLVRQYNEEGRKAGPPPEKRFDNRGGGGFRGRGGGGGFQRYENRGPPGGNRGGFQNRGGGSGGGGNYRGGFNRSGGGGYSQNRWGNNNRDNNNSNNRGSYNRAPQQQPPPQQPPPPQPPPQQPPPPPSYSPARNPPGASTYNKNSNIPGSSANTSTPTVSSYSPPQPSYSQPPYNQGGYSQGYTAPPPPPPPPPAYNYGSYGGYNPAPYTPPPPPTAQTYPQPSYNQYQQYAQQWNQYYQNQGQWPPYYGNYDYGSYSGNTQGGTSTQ
# FLAG-tagged hnRNPUL1 ΔWA (Walker A motif mutant) (Q9BUJ2, form named): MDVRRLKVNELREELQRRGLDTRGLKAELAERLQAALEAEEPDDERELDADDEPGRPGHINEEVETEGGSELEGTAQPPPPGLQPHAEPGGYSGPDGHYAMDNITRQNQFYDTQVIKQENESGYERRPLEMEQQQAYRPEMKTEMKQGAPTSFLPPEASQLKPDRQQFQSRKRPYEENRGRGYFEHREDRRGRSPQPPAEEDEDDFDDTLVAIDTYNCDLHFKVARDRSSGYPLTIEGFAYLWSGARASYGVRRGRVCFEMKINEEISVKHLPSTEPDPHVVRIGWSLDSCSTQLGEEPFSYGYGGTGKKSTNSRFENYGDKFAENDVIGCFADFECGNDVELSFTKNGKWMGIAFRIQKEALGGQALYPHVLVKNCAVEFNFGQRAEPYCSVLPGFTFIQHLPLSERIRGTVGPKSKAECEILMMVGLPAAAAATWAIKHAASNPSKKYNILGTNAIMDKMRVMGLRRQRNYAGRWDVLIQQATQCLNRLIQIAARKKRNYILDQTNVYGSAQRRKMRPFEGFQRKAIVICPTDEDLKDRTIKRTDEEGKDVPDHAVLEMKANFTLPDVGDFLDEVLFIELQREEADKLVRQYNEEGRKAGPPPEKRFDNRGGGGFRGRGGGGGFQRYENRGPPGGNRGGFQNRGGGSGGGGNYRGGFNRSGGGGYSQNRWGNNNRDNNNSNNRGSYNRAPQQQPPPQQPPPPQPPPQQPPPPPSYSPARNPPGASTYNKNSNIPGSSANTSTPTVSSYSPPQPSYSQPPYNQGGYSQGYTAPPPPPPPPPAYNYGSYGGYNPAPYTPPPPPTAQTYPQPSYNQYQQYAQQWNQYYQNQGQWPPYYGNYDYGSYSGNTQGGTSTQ
# UniProt Q01844: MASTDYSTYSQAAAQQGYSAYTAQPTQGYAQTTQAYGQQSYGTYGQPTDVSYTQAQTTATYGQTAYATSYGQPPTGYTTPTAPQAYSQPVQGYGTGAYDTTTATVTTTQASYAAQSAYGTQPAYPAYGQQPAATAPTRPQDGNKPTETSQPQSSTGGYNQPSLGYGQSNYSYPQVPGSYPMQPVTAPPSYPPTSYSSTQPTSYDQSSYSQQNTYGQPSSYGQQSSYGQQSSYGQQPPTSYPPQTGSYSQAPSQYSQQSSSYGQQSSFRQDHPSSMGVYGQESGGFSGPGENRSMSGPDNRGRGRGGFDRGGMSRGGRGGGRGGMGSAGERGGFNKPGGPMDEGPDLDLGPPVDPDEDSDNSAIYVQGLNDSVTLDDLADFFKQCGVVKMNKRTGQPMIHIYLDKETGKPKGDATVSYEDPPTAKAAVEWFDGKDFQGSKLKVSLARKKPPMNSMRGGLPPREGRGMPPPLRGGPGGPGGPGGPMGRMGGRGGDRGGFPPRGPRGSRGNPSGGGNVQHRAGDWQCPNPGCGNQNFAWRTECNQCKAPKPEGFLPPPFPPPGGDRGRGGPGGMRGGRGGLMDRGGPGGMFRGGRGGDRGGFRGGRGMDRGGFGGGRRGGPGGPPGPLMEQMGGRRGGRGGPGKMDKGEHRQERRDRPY
# Molecular target: FLAG-tagged hnRNPUL1 ΔWA (Walker A motif mutant) (human) (UniProt Q9BUJ2)
# Assay: affinity purification with mass spectrometry
substance,measurement,value
EWSR1 (from UniProt Q01844 1-656),binding,binds

# No constants are given. Whether binding was seen depends on the method and setting. In cells and extracts the contact can be indirect. These calls come from enrichment with a bait or labelling near it, and not all partners need be listed.
